Data as given in PubChem BioAssay AID504764 (Drosophila RNAi Screening Center, 2011).

- Screen: 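Knock-downs that raise or lower a Notch target reporter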 (primary screen)
- Cell system: Drosophila Kc167 cells
- Knock-down reagent: long dsRNA against Drosophila genes
- Timing: about 5 days (4 days dsRNA, then 24 h after transfection)
- Conditions: transfection of constitutively active membrane-tethered Notch lacking the extracellular domain, read 24 h later
- Detection: 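Light from a Notch-responsive E(spl)m3 luciferase reporter under active Notch, with control-promoter and no-Notch reporter wells to normalise; raw counts from paired wells a and b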
- Reading the numbers: induced reporter light, run 1, well a and induced reporter light, run 1, well b: higher = more light from the Notch target reporter with active Notch; control promoter light, run 1, well a and control promoter light, run 1, well b: higher = more light from the viral control promoter (cell number, transfection, viability); uninduced reporter light, run 1, well a: higher = more light from the Notch target reporter without active Notch
- Rule for the call: 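Wells with low control signal or poorly matching duplicates excluded; duplicates averaged; per source plate, z beyond ±2 for induced/control log2 ratio or beyond ±1.8 for induced/uninduced marks a hit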
- Meaning of the calls: active = modifier hit (raised or lowered Notch signal); inactive = not a hit
In all, the deposit lists about 22,000 reagents; shown is a random part of those with a known target gene and a result. Over the whole deposit, 403 (1.9%) got an active call. 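Unnormalised raw counts per well; ratio z-scores behind the hit calls and whether each hit raises or lowers signal are not deposited.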 Names joined by + are all predicted targets of the reagent. Not given: the amount of reagent.

Cht8 (Chitinase 8) [DRSC04546] → induced reporter light, run 1, well a = 54345; induced reporter light, run 1, well b = 50545; control promoter light, run 1, well a = 51850; control promoter light, run 1, well b = 64405; uninduced reporter light, run 1, well a = 2830; call = inactive
spag (spaghetti) [DRSC04717] → induced reporter light, run 1, well a = 2.00e5; induced reporter light, run 1, well b = 1.90e5; control promoter light, run 1, well a = 2.02e5; control promoter light, run 1, well b = 2.01e5; uninduced reporter light, run 1, well a = 15500; call = inactive
GstT3 (Glutathione S transferase T3) [DRSC20541] → induced reporter light, run 1, well a = 92945; induced reporter light, run 1, well b = 97730; control promoter light, run 1, well a = 1.08e5; control promoter light, run 1, well b = 1.15e5; uninduced reporter light, run 1, well a = 9640; call = inactive
DIP-zeta (Dpr-interacting protein zeta) [DRSC02203] → induced reporter light, run 1, well a = 1.06e5; induced reporter light, run 1, well b = 1.33e5; control promoter light, run 1, well a = 56250; control promoter light, run 1, well b = 69925; uninduced reporter light, run 1, well a = 17830; call = inactive
DIP-zeta (Dpr-interacting protein zeta) [DRSC02204] → induced reporter light, run 1, well a = 1.02e5; induced reporter light, run 1, well b = 1.23e5; control promoter light, run 1, well a = 75340; control promoter light, run 1, well b = 1.02e5; uninduced reporter light, run 1, well a = 16228; call = inactive
DIP-zeta (Dpr-interacting protein zeta) [DRSC02205] → induced reporter light, run 1, well a = 1.30e5; induced reporter light, run 1, well b = 1.49e5; control promoter light, run 1, well a = 73945; control promoter light, run 1, well b = 1.02e5; uninduced reporter light, run 1, well a = 21780; call = inactive
CG13310 [DRSC09981] → induced reporter light, run 1, well a = 1.02e5; induced reporter light, run 1, well b = 79120; control promoter light, run 1, well a = 65760; control promoter light, run 1, well b = 66990; uninduced reporter light, run 1, well a = 4320; call = active
CG30083 [DRSC05572] → induced reporter light, run 1, well a = 1.97e5; induced reporter light, run 1, well b = 1.67e5; control promoter light, run 1, well a = 2.93e5; control promoter light, run 1, well b = 2.35e5; uninduced reporter light, run 1, well a = 14190; call = inactive
Atg16 (Autophagy-related 16) [DRSC15052] → induced reporter light, run 1, well a = 1.83e5; induced reporter light, run 1, well b = 1.86e5; control promoter light, run 1, well a = 2.95e5; control promoter light, run 1, well b = 2.61e5; uninduced reporter light, run 1, well a = 10505; call = inactive
Atg16 (Autophagy-related 16) [DRSC15300] → induced reporter light, run 1, well a = 1.49e5; induced reporter light, run 1, well b = 1.18e5; control promoter light, run 1, well a = 1.76e5; control promoter light, run 1, well b = 1.87e5; uninduced reporter light, run 1, well a = 11920; call = inactive
Atg16 (Autophagy-related 16) [DRSC15375] → induced reporter light, run 1, well a = 1.30e5; induced reporter light, run 1, well b = 1.24e5; control promoter light, run 1, well a = 1.86e5; control promoter light, run 1, well b = 1.80e5; uninduced reporter light, run 1, well a = 11445; call = inactive
Alg3 (ALG3, alpha-1,3- mannosyltransferase) [DRSC04700] → induced reporter light, run 1, well a = 1.99e5; induced reporter light, run 1, well b = 1.59e5; control promoter light, run 1, well a = 1.47e5; control promoter light, run 1, well b = 1.69e5; uninduced reporter light, run 1, well a = 14275; call = inactive
GlyRS (Glycyl-tRNA synthetase) [DRSC10711] → induced reporter light, run 1, well a = 67135; induced reporter light, run 1, well b = 57185; control promoter light, run 1, well a = 45160; control promoter light, run 1, well b = 42290; uninduced reporter light, run 1, well a = 5712; call = inactive
Mul1 (Mitochondrial E3 ubiquitin protein ligase 1) [DRSC08174] → induced reporter light, run 1, well a = 85435; induced reporter light, run 1, well b = 96090; control promoter light, run 1, well a = 1.22e5; control promoter light, run 1, well b = 1.49e5; uninduced reporter light, run 1, well a = 7340; call = inactive
CAH1 + Adat1 [DRSC02009] → induced reporter light, run 1, well a = 2.42e5; induced reporter light, run 1, well b = 2.50e5; control promoter light, run 1, well a = 2.07e5; control promoter light, run 1, well b = 2.20e5; uninduced reporter light, run 1, well a = 19705; call = inactive
M6 [DRSC11869] → induced reporter light, run 1, well a = 1.06e5; induced reporter light, run 1, well b = 94830; control promoter light, run 1, well a = 1.06e5; control promoter light, run 1, well b = 91770; uninduced reporter light, run 1, well a = 6460; call = inactive
jv (javelin) [DRSC08831] → induced reporter light, run 1, well a = 1.59e5; induced reporter light, run 1, well b = 1.35e5; control promoter light, run 1, well a = 1.47e5; control promoter light, run 1, well b = 1.40e5; uninduced reporter light, run 1, well a = 10555; call = inactive
jv (javelin) [DRSC08832] → induced reporter light, run 1, well a = 1.65e5; induced reporter light, run 1, well b = 1.68e5; control promoter light, run 1, well a = 2.24e5; control promoter light, run 1, well b = 1.62e5; uninduced reporter light, run 1, well a = 12430; call = inactive

2 entries from above, ordered by “uninduced reporter light, run 1, well a”, ascending:
DIP-zeta (Dpr-interacting protein zeta) [DRSC02204] → induced reporter light, run 1, well a = 1.02e5; induced reporter light, run 1, well b = 1.23e5; control promoter light, run 1, well a = 75340; control promoter light, run 1, well b = 1.02e5; uninduced reporter light, run 1, well a = 16228; call = inactive
DIP-zeta (Dpr-interacting protein zeta) [DRSC02205] → induced reporter light, run 1, well a = 1.30e5; induced reporter light, run 1, well b = 1.49e5; control promoter light, run 1, well a = 73945; control promoter light, run 1, well b = 1.02e5; uninduced reporter light, run 1, well a = 21780; call = inactive
